# Experimental data: the supplement of paper PMC6331611
# “And” between values parts separate entries of the source, which are not always exact repeats. Identical values can stand only once. ± gives the standard deviation of the averaged measurements. The full ranking holds about 1,600 compounds; the median of “normalized intracellular growth (luminescence, IQM-normalized) in RAW264.7 macrophages” is about 1, and the lowest 2% start at about 0.43. The list shows a part of the results.
# Tested on: Salmonella enterica serovar Typhimurium SL1344
# Assay: normalized intracellular growth (luminescence, IQM-normalized) in RAW264.7 macrophages (fraction of plate interquartile mean); higher = more bacterial growth (less inhibition)
# Conditions: 10 µM
Structure (SMILES),normalized intracellular growth (time point: T3 (3 h)),normalized intracellular growth (time point: Tfinal (~6 h))
Nc1nc2[nH]cc(CCc3ccc(C(=O)N[C@@H](CCC(=O)O)C(=O)O)cc3)c2c(=O)[nH]1,0.975 ± 0.018,1.12 ± 0.16
CN1CCC[C@@H]1CCO[C@](C)(c1ccccc1)c1ccc(Cl)cc1,0.904 ± 0.032,0.915 ± 0.11
CCOc1ccc(NC(C)=O)cc1,0.937 ± 0.053,0.965 ± 0.052
COc1cc2ncnc(Nc3ccc(F)c(Cl)c3)c2cc1OCCCN1CCOCC1,0.955 ± 0.027,1.03 ± 0.037
CC(=O)Nc1ccc(C(=O)O)cc1,1.06 ± 0.055,0.967 ± 0.1
O=C(O)c1ccccc1,0.979 ± 0.028,1.01 ± 0.07
CN[C@@H]1[C@H](O[C@H]2[C@H](O[C@H]3[C@H](O)[C@@H](O)[C@H](NC(=N)N)[C@@H](O)[C@@H]3NC(=N)N)O[C@@H](C)[C@]2(O)CO)O[C@@H](CO)[C@H](O)[C@H]1O,1.02 ± 0.035,1.05 ± 0.075
NCc1ccc(S(N)(=O)=O)cc1,0.686 ± 0.071,0.0766 ± 0.0043
CCc1oc2ccccc2c1C(=O)c1cc(Br)c(O)c(Br)c1,1.04 ± 0.022,0.988 ± 0.18
CC/C(=C(\c1ccccc1)c1ccc(OCCN(C)C)cc1)c1ccccc1,1.01 ± 0.072,1 ± 0.067
C#C[C@]1(O)CC[C@H]2[C@@H]3CCC4=C(CCC(=O)C4)[C@H]3CC[C@@]21C,1.1 ± 0.073,1.15 ± 0.16
CC[N+](CC)(CC)CCOc1cccc(OCC[N+](CC)(CC)CC)c1OCC[N+](CC)(CC)CC,0.927 ± 0.045,0.903 ± 0.067
CCOC(=O)[N-]c1c[n+](N2CCOCC2)no1,0.956 ± 0.035,0.736 ± 0.26
CC(C)(C)NCC(O)c1cc(O)cc(O)c1 (stereo not given),1.08 ± 0.05,0.912 ± 0.049
Cc1ccccc1C(OCCN(C)C)c1ccccc1 (stereo not given),0.839 ± 0.072,1.48 ± 0.11
O=C1C(O)=C([C@H]2CC[C@H](c3ccc(Cl)cc3)CC2)C(=O)c2ccccc21,1.07 ± 0.075,1.12 ± 0.22
NC(=O)NC1NC(=O)NC1=O (stereo not given),1.02 ± 0.025,1.01 ± 0.1
O=C1CCc2ccc(OCCCCN3CCN(c4cccc(Cl)c4Cl)CC3)cc2N1,0.99 ± 0.091,1.07 ± 0.25
CN(C)CCOC(c1ccc(Cl)cc1)c1ccccn1 (stereo not given),1.07 ± 0.036,0.974 ± 0.078
COc1c2ccoc2cc2oc(=O)ccc12,1.04 ± 0.051,0.956 ± 0.19
COC(=O)C1=C(C)NC(C)=C(C(=O)OCC(C)C)C1c1ccccc1[N+](=O)[O-] (stereo not given),1.01 ± 0.11,0.637 ± 0.23
COC(=O)C1=C(C)NC(C)=C(C(=O)OCCN(C)Cc2ccccc2)C1c1cccc([N+](=O)[O-])c1 (stereo not given),1.01 ± 0.09,0.929 ± 0.13
CN1CCN(c2c(F)cc3c(=O)c(C(=O)O)cn4c3c2SCC4)CC1,0.982 ± 0.061,0.095 ± 0.094

Structure (SMILES),normalized intracellular growth (time point: T3 (3 h)),normalized intracellular growth (time point: Tfinal (~6 h))
O=C(O)COCCN1CCN([C@H](c2ccccc2)c2ccc(Cl)cc2)CC1,0.9958 ± 0.0086,0.884 ± 0.058
Cc1cnc(C(=O)NCCc2ccc(S(=O)(=O)NC(=O)NC3CCCCC3)cc2)cn1,1.12 ± 0.081,0.798 ± 0.34
O=C1[C@H](CC[C@H](O)c2ccc(F)cc2)[C@@H](c2ccc(O)cc2)N1c1ccc(F)cc1,0.894 ± 0.034,1 ± 0.26
O=S(=O)(O)c1cc(I)c(O)c2ncccc12,0.944 ± 0.028,0.957 ± 0.19
CCC1NC(=O)c2cc(S(N)(=O)=O)c(Cl)cc2N1 (stereo not given),0.993 ± 0.04,1.03 ± 0.16
CC(O)(P(=O)(O)O)P(=O)(O)O,1.04 ± 0.056,0.85 ± 0.23
CCN(CC)CCOc1ccc(C(=C(Cl)c2ccccc2)c2ccccc2)cc1,0.97 ± 0.059,0.744 ± 0.041
CCCCCOC(=O)Nc1nc(=O)n([C@@H]2O[C@H](C)[C@@H](O)[C@H]2O)cc1F,0.864 ± 0.018,0.799 ± 0.067
CCCCNc1ccc(C(=O)OCCN(C)C)cc1,1.04 ± 0.075,0.92 ± 0.047
CN1CCOC(c2ccccc2)c2ccccc2C1 (stereo not given),0.892 ± 0.067,0.936 ± 0.031
CN1CCC(=C2c3ccccc3CCc3sccc32)CC1,0.997 ± 0.065,1.15 ± 0.2
O=C1c2cccc(O)c2C(=O)c2c(O)cccc21,1.05 ± 0.039,1.02 ± 0.05
CCOC(N)=O,1.06 ± 0.039,0.715 ± 0.14
CC(C)NNC(=O)c1ccncc1,1.05 ± 0.07,0.891 ± 0.23
CSCC[C@H](NC(=O)[C@H](Cc1c[nH]c2ccccc12)NC(=O)CCNC(=O)OC(C)(C)C)C(=O)N[C@@H](CC(=O)O)C(=O)N[C@@H](Cc1ccccc1)C(N)=O,1 ± 0.04,0.827 ± 0.23
CCN(CC)CCNC(=O)c1cc(Br)c(N)cc1OC,1.06 ± 0.055,1.18 ± 0.045
OC(CCN1CCCCC1)(c1ccccc1)c1ccccc1,0.967 ± 0.046,1.14 ± 0.09
CCCCC(=O)N(Cc1ccc(-c2ccccc2-c2nnn[nH]2)cc1)[C@H](C(=O)O)C(C)C,0.881 ± 0.033,0.239 ± 0.016
C[C@H](CCC(=O)O)[C@H]1CC[C@H]2[C@@H]3C(=O)C[C@@H]4CC(=O)CC[C@]4(C)[C@H]3CC(=O)[C@]12C,1.02 and 1.03,0.89 and 0.937
CO[C@H]1C[C@H](O[C@@H]2/C(C)=C/C[C@@H]3C[C@@H](C[C@]4(CC[C@H](C)[C@@H](C5CCCCC5)O4)O3)OC(=O)[C@@H]3C=C(C)/C(=N/O)[C@H]4OC/C(=C\C=C\[C@@H]2C)[C@]43O)O[C@@H](C)[C@@H]1O,1.01 ± 0.064,1.16 ± 0.094
CCOC(=O)C1=C(C)NC(C)=C(C(=O)OC)C1c1cccc(Cl)c1Cl (stereo not given),0.889 ± 0.021,1.02 ± 0.17
O=C1c2c(O)ccc(O)c2C(=O)c2c(NCCNCCO)ccc(NCCNCCO)c21,0.947 ± 0.051,1.07 ± 0.24
